Test results as given in patent publication US7579335B2, “Androstane 17α-carbonate derivatives for use in the treatment of allergic and inflammatory conditions” (Glaxo Group Limited, priority 2005, dated 2009).
Some entries share one result that the patent states for a list of compounds.

Assays:
glucocorticoid receptor = molecular target: T1, glucocorticoid receptor (Homo sapiens, UniProt P04150); test: Assay for transrepression activity of the glucocorticoid agonists (NF-κB/ELAM-sPAP reporter, TNF stimulated); type: cell-based; details: A549 cells, NF-κB responsive ELAM promoter-sPAP reporter; compound 1 hour, then TNF 10 ng/ml for 16 hours
T1 sequence (P04150 1-777): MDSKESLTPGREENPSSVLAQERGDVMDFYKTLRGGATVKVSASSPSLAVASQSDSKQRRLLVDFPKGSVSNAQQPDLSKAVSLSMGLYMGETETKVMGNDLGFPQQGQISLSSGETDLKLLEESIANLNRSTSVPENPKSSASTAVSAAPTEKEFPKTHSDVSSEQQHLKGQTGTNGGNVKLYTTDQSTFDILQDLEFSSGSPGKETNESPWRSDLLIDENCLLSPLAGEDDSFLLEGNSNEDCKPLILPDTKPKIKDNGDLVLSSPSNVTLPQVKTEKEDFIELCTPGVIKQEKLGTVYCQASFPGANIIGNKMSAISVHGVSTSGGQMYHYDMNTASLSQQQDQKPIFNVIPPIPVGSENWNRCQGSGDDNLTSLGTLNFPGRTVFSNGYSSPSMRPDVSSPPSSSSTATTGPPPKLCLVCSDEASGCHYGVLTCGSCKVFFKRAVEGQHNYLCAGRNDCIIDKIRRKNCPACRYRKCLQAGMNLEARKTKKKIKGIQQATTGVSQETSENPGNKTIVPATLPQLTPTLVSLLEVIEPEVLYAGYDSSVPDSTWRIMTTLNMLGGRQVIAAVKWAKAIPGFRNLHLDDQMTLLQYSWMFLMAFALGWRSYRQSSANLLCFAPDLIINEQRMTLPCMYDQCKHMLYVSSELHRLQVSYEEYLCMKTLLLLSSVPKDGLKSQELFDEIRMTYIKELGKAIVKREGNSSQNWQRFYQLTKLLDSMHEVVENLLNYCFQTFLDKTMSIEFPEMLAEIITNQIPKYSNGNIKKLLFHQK
Protocol: Assay for Transrepression Activity of the Glucocorticoid Agonists
The functional assay based on that described by K. P. Ray et al., Biochem J. (1997), 328, 707-715 provides a measure of transrepressive activity of a glucocorticoid agonist. A549 cells stably transfected with a reporter gene containing the NF-κB responsive elements from the ELAM gene promoter coupled to sPAP (secreted alkaline phosphatase) are treated with test compounds at appropriate doses for 1 hour at 37° C. The cells are then stimulated with tumour necrosis factor (TNF, 10 ng/ml) for 16 hours, at which time the amount of alkaline phosphatase produced is measured by a standard colourimetric assay. Dose response curves were constructed from which EC50 values were estimated.

progesterone receptor = molecular target: T2, progesterone receptor (Homo sapiens, UniProt P06401); test: Assay for progesterone receptor activity (PRb-BacMam/MMTV-BacMam transduced CV-1 cells); type: cell-based; details: CV-1 cells transduced with PRb-BacMam and MMTV-BacMam; 24 h
T2 construct: expressed in transfected cells; host or cells: CV-1 cells transduced with PRb-BacMam (baculovirus)
T2 sequence (P06401 1-933): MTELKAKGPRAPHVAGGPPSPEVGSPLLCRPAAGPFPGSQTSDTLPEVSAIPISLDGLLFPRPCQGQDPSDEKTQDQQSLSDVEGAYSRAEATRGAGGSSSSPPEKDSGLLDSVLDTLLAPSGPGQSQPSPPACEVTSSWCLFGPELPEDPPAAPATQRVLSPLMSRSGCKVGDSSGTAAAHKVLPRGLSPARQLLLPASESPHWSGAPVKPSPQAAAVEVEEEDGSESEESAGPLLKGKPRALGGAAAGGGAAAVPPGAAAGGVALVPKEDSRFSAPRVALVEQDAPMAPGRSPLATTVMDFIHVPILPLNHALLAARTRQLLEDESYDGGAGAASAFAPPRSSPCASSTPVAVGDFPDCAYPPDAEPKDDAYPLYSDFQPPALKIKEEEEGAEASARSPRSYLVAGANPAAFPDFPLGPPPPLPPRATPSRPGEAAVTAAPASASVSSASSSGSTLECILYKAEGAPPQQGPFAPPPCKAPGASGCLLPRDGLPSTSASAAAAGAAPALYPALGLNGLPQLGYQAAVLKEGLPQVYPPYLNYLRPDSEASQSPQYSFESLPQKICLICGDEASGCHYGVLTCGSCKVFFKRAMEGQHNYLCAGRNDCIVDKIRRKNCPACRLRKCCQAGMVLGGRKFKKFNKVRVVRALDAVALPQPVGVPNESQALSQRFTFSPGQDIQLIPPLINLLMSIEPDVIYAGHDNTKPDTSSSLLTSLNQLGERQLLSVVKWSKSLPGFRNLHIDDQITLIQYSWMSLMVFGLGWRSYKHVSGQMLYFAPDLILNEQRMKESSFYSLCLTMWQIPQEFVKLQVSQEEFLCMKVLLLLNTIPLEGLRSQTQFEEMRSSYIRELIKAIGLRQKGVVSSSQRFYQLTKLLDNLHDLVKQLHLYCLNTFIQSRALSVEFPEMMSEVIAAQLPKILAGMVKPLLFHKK

Compound | pEC50 transrepression (glucocorticoid receptor) | pEC50 progesterone receptor (progesterone receptor)
CC1CC2C3CC(F)C4=CC(=O)C=CC4(C)C3(F)C(O)CC2(C)C1(OC(=O)OC1CC2CCC1(C)C2(C)C)C(=O)OCC#N (stereo not drawn) [Example 22, Cyanomethyl (6α,11β,16α,17α)-6,9-difluoro-11-hydroxy-16-methyl-3-oxo-17-[({[(1RS,2RS,4RS)-1,7,7-trimethylbicyclo[2.2.1]hept-2-yl]oxy}carbonyl)oxy]androsta-1,4-diene-17-carboxylate] | > 7.5 | –
CC(OC(=O)O[C@]1(C(=O)OCC#N)[C@H](C)C[C@H]2[C@@H]3C[C@H](F)C4=CC(=O)C=C[C@]4(C)[C@@]3(F)[C@@H](O)C[C@@]21C)C(C)(C)C (stereo partly drawn) [Example 23, Cyanomethyl (6α,11β,16α,17α)-6,9-difluoro-11-hydroxy-16-methyl-3-oxo-17-({[(1,2,2-trimethylpropyl)oxy]carbonyl}oxy)androsta-1,4-diene-17-carboxylate] | > 7.5 | –
CC1C(OC(=O)OC2(C(=O)OCC#N)C(C)CC3C4CC(F)C5=CC(=O)C=CC5(C)C4(F)C(O)CC32C)CC2CC1C2(C)C [Example 17, Cyanomethyl (6α,11β,16α,17α)-6,9-difluoro-11-hydroxy-16-methyl-3-oxo-17-[({[(1S,2S,3S,5R)-2,6,6-trimethylbicyclo[3.1.1]hept-3-yl]oxy}carbonyl)oxy]androsta-1,4-diene-17-carboxylate] | > 7.5 | < 7
C[C@@H]1C[C@H]2[C@@H]3C[C@H](F)C4=CC(=O)C=C[C@]4(C)[C@@]3(F)[C@@H](O)C[C@]2(C)[C@@]1(OC(=O)OCC(C)(C)C)C(=O)OCC#N [Example 6, Cyanomethyl (6α,11β,16α,17α)-17-({[(2,2-dimethylpropyl)oxy]carbonyl}oxy)-6,9-difluoro-11-hydroxy-16-methyl-3-oxoandrosta-1,4-diene-17-carboxylate] | > 7.5 | < 7
C[C@@H]1C[C@H]2[C@@H]3C[C@H](F)C4=CC(=O)C=C[C@]4(C)[C@@]3(F)[C@@H](O)C[C@]2(C)[C@@]1(OC(=O)O[C@H]1C(C)(C)[C@H]2CC[C@]1(C)C2)C(=O)OCC#N [Example 18, Cyanomethyl (6α,11β,16α,17α)-6,9-difluoro-11-hydroxy-16-methyl-3-oxo-17-[({[(1R,2R,4S)-1,3,3-trimethylbicyclo[2.2.1]hept-2-yl]oxy}carbonyl)oxy]androsta-1,4-diene-17-carboxylate] | > 7.5 | < 7
CCC(CC)COC(=O)O[C@]1(C(=O)OCC#N)[C@H](C)C[C@H]2[C@@H]3C[C@H](F)C4=CC(=O)C=C[C@]4(C)[C@@]3(F)[C@@H](O)C[C@@]21C [Example 5, Cyanomethyl (6α,11β,16α,17α)-17-({[(2-ethylbutyl)oxy]carbonyl}oxy)-6,9-difluoro-11-hydroxy-16-methyl-3-oxoandrosta-1,4-diene-17-carboxylate] | > 7.5 | < 7
CC1C(OC(=O)OC2(C(=O)OCC#N)C(C)CC3C4CC(F)C5=CC(=O)C=CC5(C)C4(F)C(O)CC32C)CC2CC1C2(C)C [Example 16, Cyanomethyl (6α,11β,16α,17α)-6,9-difluoro-11-hydroxy-16-methyl-3-oxo-17-[({[(1R,2R,3R,5S)-2,6,6-trimethylbicyclo[3.1.1]hept-3-yl]oxy}carbonyl)oxy]androsta-1,4-diene-17-carboxylate] | > 7.5 | < 7
CC[C@H]1CC[C@@H](OC(=O)O[C@]2(C(=O)OCC#N)[C@H](C)C[C@H]3[C@@H]4C[C@H](F)C5=CC(=O)C=C[C@]5(C)[C@@]4(F)[C@@H](O)C[C@@]32C)CC1 (relative stereo) [Example 20, Cyanomethyl (6α,11β,16α,17α)-17-({[(cis-4-ethylcyclohexyl)oxy]carbonyl}oxy)-6,9-difluoro-11-hydroxy-16-methyl-3-oxoandrosta-1,4-diene-17-carboxylate] | > 7.5 | –
C[C@@H]1C[C@H]2[C@@H]3C[C@H](F)C4=CC(=O)C=C[C@]4(C)[C@@]3(F)[C@@H](O)C[C@]2(C)[C@@]1(OC(=O)O[C@@H]1C[C@@H]2CC[C@@]1(C)C2(C)C)C(=O)OCC#N [Example 14, Cyanomethyl (6α,11β,16α,17α)-6,9-difluoro-11-hydroxy-16-methyl-3-oxo-17-[({[(1S,2R,4S)-1,7,7-trimethylbicyclo[2.2.1]hept-2-yl]oxy}carbonyl)oxy]androsta-1,4-diene-17-carboxylate] | > 7.5 | –
CCCC(OC(=O)O[C@]1(C(=O)OCC#N)[C@H](C)C[C@H]2[C@@H]3C[C@H](F)C4=CC(=O)C=C[C@]4(C)[C@@]3(F)[C@@H](O)C[C@@]21C)C(C)C (stereo partly drawn) [Example 24, Cyanomethyl (6α,11β,16α,17α)-6,9-difluoro-11-hydroxy-16-methyl-17-[({[1-(1-methylethyl)butyl]oxy}carbonyl)oxy]-3-oxoandrosta-1,4-diene-17-carboxylate] | > 7.5 | –
CCC(CC)OC(=O)O[C@]1(C(=O)OCC#N)[C@H](C)C[C@H]2[C@@H]3C[C@H](F)C4=CC(=O)C=C[C@]4(C)[C@@]3(F)[C@@H](O)C[C@@]21C [Example 3, Cyanomethyl (6α,11β,16α,17α)-17-({[(1-ethylpropyl)oxy]carbonyl}oxy)-6,9-difluoro-11-hydroxy-16-methyl-3-oxoandrosta-1,4-diene-17-carboxylate] | > 7.5 | –
CC(C)C(OC(=O)O[C@]1(C(=O)OCC#N)[C@H](C)C[C@H]2[C@@H]3C[C@H](F)C4=CC(=O)C=C[C@]4(C)[C@@]3(F)[C@@H](O)C[C@@]21C)C(C)C [Example 4, Cyanomethyl (6α,11β,16α,17α)-6,9-difluoro-11-hydroxy-16-methyl-17-[({[2-methyl-1-(1-methylethyl)propyl]oxy}carbonyl)oxy]-3-oxoandrosta-1,4-diene-17-carboxylate] | > 7.5 | –
CCCC(CCC)OC(=O)O[C@]1(C(=O)OCC#N)[C@H](C)C[C@H]2[C@@H]3C[C@H](F)C4=CC(=O)C=C[C@]4(C)[C@@]3(F)[C@@H](O)C[C@@]21C [Example 21, Cyanomethyl (6α,11β16α,17α)-6,9-difluoro-11-hydroxy-16-methyl-3-oxo-17-({[(1-propylbutyl)oxy]carbonyl}oxy)androsta-1,4-diene-17-carboxylate] | > 7.5 | –
CC[C@H]1CC[C@H](OC(=O)O[C@]2(C(=O)OCC#N)[C@H](C)C[C@H]3[C@@H]4C[C@H](F)C5=CC(=O)C=C[C@]5(C)[C@@]4(F)[C@@H](O)C[C@@]32C)CC1 (relative stereo) [Example 19, Cyanomethyl (6α,11β,16α,17α)-17-({[(trans-4-ethylcyclohexyl)oxy]carbonyl}oxy)-6,9-difluoro-11-hydroxy-16-methyl-3-oxoandrosta-1,4-diene-17-carboxylate] | > 7.5 | –
